Results reported in patent publication US10174078B2, “Keratan sulfate specific transporter molecules” (PHI PHARMA SA, priority 2014, dated 2019).
“Also recorded” adds a separate entry of the source. Part of at least one peptide drawing is inferred or uncertain, most often the ends. Ends that are not written are not given here. Peptide text beside a SMILES is read from it.

Key:
[1] = test system: keratan-sulfate (KS); experiment: modified ELISA: binding of peptides to plate-coated keratan-sulfate; details: for specific and selective binding of KS over other proteoglycans: KS compared with HS, C4S, C6S (and HA in FIG. 5B); for binding to KS: plates coated with 1 mg/ml KS, 1 mg/ml peptide, 1 hour at room temperature
Protocol: The binding of the seven-mer peptides of the invention to KS as predicted by the models, in particular, as compared to the binding to other proteoglycans was tested using a modified ELISA protocol. ELISA plates were coated overnight with 1 mg/ml of heparin sulfate (HS), chondroitin-4-sulfate (C4S), chondroitin-6-sulfate (C6S) or keratan-sulfate (KS) in PBS. The wells were then washed with PBS and incubated for 1 hour at room temperature with 1 mg/ml of an exemplary peptide of the invention having the sequence RYKvRIK (“RYK-KS”; SEQ ID NO:7) or a standard TAT peptide. The plates were then thoroughly washed with PBS and subsequently photographed with a LUMASCOPE™ luminescent microscope. Images were then quantified using the ImageJ software (FIG. 4).
The same modified ELISA protocol was used to examine the impact of modifying the freely-selectable positions 2, 4 and 6 on the specific binding to KS.
The impact of sequence variation on specific binding was also investigated with select peptides using the above described modified ELISA.

[2] = test system: other tested proteoglycans (C4S, C6S, HS, HA); experiment: modified ELISA: binding of peptides to the other plate-coated proteoglycans; details: HS and HA (FIG. 5B)

| Compound | specific and selective binding of KS over other proteoglycans [1] | binding to KS [1] | binding to KS ([1]; listed as RYRI) | binding to the other tested proteoglycans [2] |
| --- | --- | --- | --- | --- |
| CC[C@H](C)[C@H](N)C(=O)N[C@@H](CCCNC(=N)N)C(=O)N[C@H](C(=O)N[C@H](CCCCN)C(=O)N[C@H](C(=O)N[C@H](CCCNC(=N)N)C(=O)N[C@H](C(=O)N[C@@H](CCCCN)C(=O)O)[C@@H](C)CC)[C@@H](C)CC)[C@@H](C)CC [IRIkIrIK] (HELM PEPTIDE1{I.R.I.[dK].I.[dR].I.K}$$$$V2.0; N-terminus and C-terminus assumed) | did not exhibit specifc and selective binding for KS | – | – | – |
| CC[C@H](C)[C@H](NC(=O)[C@H](CCCNC(=N)N)NC(=O)[C@H](NC(=O)[C@H](CCCCN)NC(=O)[C@H](Cc1ccc(O)cc1)NC(=O)[C@@H](N)CCCNC(=N)N)C(C)C)C(=O)N[C@@H](CCCCN)C(=O)O [RYK-KS, RYKvRIK] (HELM PEPTIDE1{R.Y.K.[dV].R.I.K}$$$$V2.0; N-terminus and C-terminus assumed) | selectively binds KS over the other proteoglycans tested; also recorded: specifically and selectively binds KS over other proteoglycans | specifically binds to the KS proteoglycan | strong and selective binding to KS | – |
| RPKHRPK [RPKHRPK] | – | eliminated binding to KS | – | to the other tested proteoglycans as well |
